Assay results taken from US20190144533A1.
No constants are given. Whether binding was seen depends on the method and setting. Some entries that bind do so weakly or less than the wild type. Tags and fused reporters may be left off the sequences shown.

T1: IL-31-CEE (purified recombinant human IL-31 fused at the C-terminal with the peptide EYMPME, produced in BHK cells) (human) (UniProt Q6EBC2)
T1 sequence: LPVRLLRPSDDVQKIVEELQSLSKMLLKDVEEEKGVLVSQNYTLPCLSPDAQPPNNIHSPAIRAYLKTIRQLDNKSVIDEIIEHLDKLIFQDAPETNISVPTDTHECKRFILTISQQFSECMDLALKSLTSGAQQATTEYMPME


Columns and labels:
[1] = target: T1, IL-31-CEE (purified recombinant human IL-31 fused at the C-terminal with the peptide EYMPME, produced in BHK cells) (human); assay: plate based affinity ELISA, captured mAb, biotinylated rIL31-CEE
[2] = target: T1, IL-31-CEE (purified recombinant human IL-31 fused at the C-terminal with the peptide EYMPME, produced in BHK cells) (human); assay: ELISA on plate bound IL-31-CEE, clone supernatants
[3] = target: T1, IL-31-CEE (purified recombinant human IL-31 fused at the C-terminal with the peptide EYMPME, produced in BHK cells) (human); assay: Western blot on non-reduced/denatured rIL31-CEE

| Binder | binding [1] | binding [2] | binding [3] |
| --- | --- | --- | --- |
| mouse anti-human IL-31 mAb 292.51.5.2 (antibody, mouse IgG1, V domains shown) VH: EVQLVESGGDLVKPGGSLKLSCAASGFTFSSFVMSWVRQSPEKRLEWVATINSGGYYSFHPDSVKGRFTISRDNAKNTLYLQMSSLRSEDTAIYYCARQEGWSSAYFSYWGQGTLVTVSA VL: DIVMTQSPSSLAMSVGQKVTMICKSSQSLLNSSNQKNYLAWYQQKPGHSPKLLVSFTSTRESGVPDRFIGSGSGTDFTLTITNMQAEDLADYFCQQHYDTPYTFGGGTKLEIR | binds | binds | – |
| mouse anti-human IL-31 mAb 292.72.3.1 (antibody, mouse IgG2a, V domains shown) VH: QVQVQQSGAELARPGASVKLSCKASGYTLTRYWMQWVKQRPGQGLEWIGAIYPRDGDTRYSQKFKGKATLTADKSSTTAYMQLSSLASEDSAVYYCAYPDGSYAAPNGMEYWGQGSSVTVSS VL: DIQMSQSPASLSASVGETVTITCRASGSIHNYLAWYQQKQGKSPQLLVYNAETLADGVPSRFSGSGSGTQYSLKISSLQPEDFGTYYCQHFWITPWTFGGGTKLEIK | binds | binds | – |
| mouse anti-human IL-31 mAb 292.84.1.6 (antibody, V domains shown) VH: QVQLQQSGAELARPGASVNLSCKASGYTLTRYWMQWVKQRPGQGLEWIGTIYPGDGDTRYSQKFKGKASLTADKSSNTAYMQLNNLASEDSAVYFCAFPDGYYAAPYGMDYWGQGTSVTVSS VL: DIQMTQSPASLSASVGETVTITCRASGNIHNYLAWYQQKQGRSPQLLVYNAKTLADGVPSRFSGSRSETQYSLKINSLQPEDFGSYYCQHFWSTPWTFGGGTKLEIK | binds | binds | binds |
